Data from patent US20090068643.
Construct, isoform or probe ends are uncertain for at least one entry. For some of these results: A negative result means that nothing was seen under these conditions.

Assays:
[1] = tested on: Tli I restriction endonuclease; assay: enzyme reaction in vitro; details: fluorescein-dT, purified recombinant protein, label: 5' anthraquinone quencher, fluorescein-dT
[2] = tested on: PspG1 (PspGI) restriction endonuclease; assay: enzyme reaction in vitro; details: 3' ddC, FAM-dT [20 (FAM-dT), 41 (3' ddC)], purified recombinant protein, label: 5' Iowa Black azo quencher, FAM-dT, letters built from the parent sequence and the stated change
[3] = no cleavage, site too close to quencher/fluorophore

TTCTCGAGCGCTCGCCTATCCGCTTC (double strand) [SEQ 18 duplex]
activity on this sequence [1, 3]: not active

CCGTTCTCGAGGTCGCTCGCCTATCCGCTTC (double strand) [SEQ 20 duplex]
activity on this sequence ([1]; cleaved): active

CCGTTCTCGAGCGCTCGCCTATCCGCTTC (double strand) [SEQ 19 duplex]
activity on this sequence ([1]; cleaved, 12-base separation): active

CCGTTCTCGAGGTTTCGCTCGCCTATCCGCTTC (double strand) [SEQ 21 duplex]
activity on this sequence ([1]; cleaved): active

CCGTTCTCGAGTTCGCTCGCCTATCCGCTTC (double strand) [primer/probe SEQ 4 amplicon]
activity on this sequence ([1]; internal fluorescein-dT between TT and CGCTCG (absent from listing), PCR product cleaved with Tli I added before PCR or after PCR (30 min 75 C), 3 mM MgCl2, 50 mM KCl): active

CCGTTCTCGAGGTTTTTCGCTCGCCTATCCGCTTC (double strand) [SEQ 22 duplex]
activity on this sequence ([1]; cleaved): active

TCTCGAGCGCTCGCCTATCCGCTTC (double strand) [SEQ 17 duplex]
activity on this sequence [1, 3]: not active

CCGTTCTCGAGGTTTTTTTCGCTCGCCTATCCGCTTC (double strand) [SEQ 23 duplex]
activity on this sequence ([1]; cleaved): active

TTTTTTTCCTGGTTTTTTTTTTCGGCTTCCTCCACGTCATC (double strand) [FQT-LNA template probe, extended duplex]
activity on this sequence ([2]; LNA-C at marked C positions of 3' binding domain, 23,26,29,30,32,33,35,38 (LNA-C), indirect: real-time PCR signal about 3 cycles earlier with PspG1, 10 mM MgCl2): active

TTTTTTTCCTGGTTTTTTTTTTCGGCTTCCTCCACGTCATC (double strand) [FQT-5mC template probe, extended duplex]
activity on this sequence ([2]; 5-methyl-dC at marked C positions of 3' binding domain, 23,26,29,30,32,33,35,38 (5-methyl-dC), indirect: slightly stronger real-time PCR signal with PspG1): active
